# Experimental data reported in PubChem BioAssay AID1671190 (National Center for Advancing Translational Sciences (NCATS), 2021).
# Sequences of proteins named here, by UniProt entry; tags and fusion partners are left off. A change or cut given only in a name is not applied to a line headed by its entry.
# UniProt P18054: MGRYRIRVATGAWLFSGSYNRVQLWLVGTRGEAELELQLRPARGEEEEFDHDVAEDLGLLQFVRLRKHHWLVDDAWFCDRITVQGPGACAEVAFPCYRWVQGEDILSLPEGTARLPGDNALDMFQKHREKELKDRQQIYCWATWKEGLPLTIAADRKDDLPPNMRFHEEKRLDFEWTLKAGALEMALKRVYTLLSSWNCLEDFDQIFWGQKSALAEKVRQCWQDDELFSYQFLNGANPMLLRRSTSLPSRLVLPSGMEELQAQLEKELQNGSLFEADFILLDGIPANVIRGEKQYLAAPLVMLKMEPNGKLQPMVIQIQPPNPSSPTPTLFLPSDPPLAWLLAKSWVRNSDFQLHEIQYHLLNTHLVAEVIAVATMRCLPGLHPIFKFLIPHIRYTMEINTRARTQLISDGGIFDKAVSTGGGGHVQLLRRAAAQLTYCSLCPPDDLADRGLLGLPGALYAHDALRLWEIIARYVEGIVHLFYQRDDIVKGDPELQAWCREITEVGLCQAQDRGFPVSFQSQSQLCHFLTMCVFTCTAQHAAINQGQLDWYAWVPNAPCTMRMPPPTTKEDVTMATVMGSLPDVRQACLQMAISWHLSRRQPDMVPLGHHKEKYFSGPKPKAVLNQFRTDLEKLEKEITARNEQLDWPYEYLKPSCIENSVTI
# “And” between values parts separate entries of the source, which are not always exact repeats. Equal entries are not always repeated. The whole screen tested about 580,000 compounds, of which about 6,100 (1.1%) were called active. The shares of active, inactive and inconclusive entries below differ from those in the screen. Calls follow the shape of the dose curve; as a rule, active = well fitted inhibition curve with a large enough effect; inconclusive = small, poorly fitted or top-dose-only effect, or another doubt; inactive = no such curve, though single readings can be large or run the other way. Potencies beside an inconclusive call are fits to weak or partial responses and may not hold up.
# Target: Polyunsaturated fatty acid lipoxygenase ALOX12 (Homo sapiens) (UniProt P18054)
# Test: Primary qHTS assay for inhibitors of human arachidonate 12S-lipoxygenase (ALOX12): Round 2
# Settings: purified 12hLO, xylenol orange hydroperoxide absorbance; activity change, negative = inhibition: at 108 µM (top of the series) unless noted
# Procedure, shortened: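 Purified human 12hLO (150 nM final) in 25 mM Hepes, 0.01% Triton X-100, pH 7.0 was preincubated 15 min at room temperature with compound. Then 40 uM arachidonic acid was added, 30 min. Hydroperoxide was read by Fe-XO absorbance ratio 573/405 nm.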
# % is scaled to controls: 0 for no effect and ±100 for the full control effect; potency is read from the fitted curve at half-maximal effect.
SMILES,Potency,"activity change, negative = inhibition"
COc1cc(/C=N/NC(=S)NC2CC3CCC2C3)ccc1O (stereo not drawn),"inconclusive: 31.6 µM [inhibitor, partial curve, poor fit]",–
COc1ccccc1N=C1NN=C(c2cc(C)n(CC3CCCO3)c2C)CS1 (stereo not drawn),"inconclusive: 0.199 µM [inhibitor, full curve, poor fit]",–
COc1ccc(NC(=O)C2CCN(c3cnccn3)CC2)cc1Cl,"inconclusive: 126 µM [inhibitor, partial curve, poor fit] and inconclusive: 8.91 µM [inhibitor, full curve, poor fit]",–
Cc1ccc2[nH]c3c(=O)n(CC(=O)NCCc4ccc(Cl)cc4)ncc3c2c1,"inconclusive: 79.4 µM [inhibitor, partial curve, poor fit]",–
COc1ccc(NC(=O)CSc2nc(-c3ccco3)nc3cc(=O)[nH]n23)cc1Cl,"inconclusive: 50.1 µM [inhibitor, partial curve, poor fit]",–
CCC(C)NC(=O)c1sc2ncccc2c1-n1c(C)ccc1C (stereo not drawn),–,inactive: -24.1%
S=c1[nH]nc(-c2cccs2)n1/N=C/c1c(Cl)cccc1Cl,"inconclusive: 50.1 µM [inhibitor, partial curve, poor fit]",–
O=C(NCc1ccco1)C(c1ccccc1)N(C(=O)Cc1cccs1)c1cccnc1 (stereo not drawn),"inconclusive: 44.7 µM [inhibitor, partial curve, poor fit]",–
N#Cc1cccc(COC(=O)c2ccccn2)c1,"inconclusive: 39.8 µM [inhibitor, partial curve, poor fit]",–
COc1ccc(Cl)cc1NC(=O)C(C)N1CCN(C/C=C/c2ccccc2)CC1 (stereo not drawn),"inconclusive: 4.47 µM [inhibitor, full curve, poor fit]",–
COC(=O)C1=C(N)Oc2n[nH]c(-c3ccccc3)c2C12C(=O)N(Cc1cccc(F)c1)c1ccccc12 (stereo not drawn),"inconclusive: 56.2 µM [inhibitor, partial curve, poor fit]",–
Cc1ccc(NC(NC(=O)c2ccc(Br)cc2)C(Cl)(Cl)Cl)cc1 (stereo not drawn),"inconclusive: 112 µM [inhibitor, partial curve, poor fit]",–
O=C(O)Cc1cc(I)c(Oc2ccc(O)c(I)c2)c(I)c1,"inconclusive: 14.1 µM [inhibitor, partial curve, poor fit]",–
Cc1ccc(CNC(=O)c2ccc(CN3CCOCC3)cc2)cc1,"inconclusive: 50.1 µM [inhibitor, partial curve, poor fit]",–
Cc1cc2nc(/C(C#N)=C/c3coc4ccccc4c3=O)[nH]c2cc1C,"inconclusive: 25.1 µM [inhibitor, single point]",–
Cc1cccc(NC(=O)COc2cccc3c(=O)n(C)ccc23)c1C,"inconclusive: 141 µM [inhibitor, partial curve, poor fit]",–
CCOc1cc(C2c3c(oc4ccccc4c3=O)C(=O)N2c2ccccn2)ccc1O (stereo not drawn),"inconclusive: 89.1 µM [inhibitor, partial curve, poor fit]",–
COc1ccc(Cl)cc1NC(=O)CN(C)C(=O)c1ccc(-n2cncn2)cc1,"inconclusive: 100 µM [inhibitor, single point]",–
CC1=C/C(=N\NC(=S)Nc2ccccc2C)CC1,"inconclusive: 44.7 µM [inhibitor, partial curve, poor fit]",–
OC(c1ccccc1)(c1ccccc1)C1CCN(CCCOc2cccc(OC(F)(F)F)c2)CC1,"inconclusive: 79.4 µM [inhibitor, partial curve, poor fit]",–
c1ccc(-c2cn3c(n2)CCC3)cc1,–,inactive: -1.89%

# Entries of single compounds as entered above. Values in the order: Potency	activity change, negative = inhibition
# N#Cc1cccc(COC(=O)c2ccccn2)c1 in the list: inconclusive: 39.8 µM [inhibitor, partial curve, poor fit]	–
# O=C(O)Cc1cc(I)c(Oc2ccc(O)c(I)c2)c(I)c1 in the list: inconclusive: 14.1 µM [inhibitor, partial curve, poor fit]	–
# COc1ccc(NC(=O)C2CCN(c3cnccn3)CC2)cc1Cl in the list: inconclusive: 126 µM [inhibitor, partial curve, poor fit] and inconclusive: 8.91 µM [inhibitor, full curve, poor fit]	–
# Cc1ccc(CNC(=O)c2ccc(CN3CCOCC3)cc2)cc1 in the list: inconclusive: 50.1 µM [inhibitor, partial curve, poor fit]	–

# (more compounds)

SMILES,Potency,"activity change, negative = inhibition"
Cc1ccc(NS(=O)(=O)Cc2ccccc2)nc1,"inconclusive: 50.1 µM [inhibitor, partial curve, poor fit]",–
Cc1cnc(C)c(-c2cc(O)c3c(c2)CN(C(=O)C2CCNC2)CCO3)n1 (stereo not drawn),"inconclusive: 17.8 µM [inhibitor, single point]",–
O=C1c2ccccc2C2=Nc3ccccc3SC(c3ccccc3F)C12 (stereo not drawn),"inconclusive: 39.8 µM [inhibitor, partial curve, poor fit]",–
O=C(CSc1nc(-c2ccco2)cc(C(F)(F)F)n1)N1CCCCCC1,–,inactive: 33.9%
CCCNc1c(NC(=O)NCC2CCC(C(=O)OCC)CC2)c(=O)oc2ccccc12 (stereo not drawn),"inconclusive: 141 µM [inhibitor, single point]",–
Nc1ccccc1C#Cc1ccc2[nH]ccc2c1,"inconclusive: 79.4 µM [inhibitor, single point]",–
COc1ccc(OC)c(NC(=O)c2cc(=O)c3c(C)cc(C)cc3o2)c1,"inconclusive: 50.1 µM [inhibitor, partial curve, poor fit]",–
Cc1ccc(NC(=O)CS(=O)CC(=O)NCC2OCCc3ccccc32)c(C)c1 (stereo not drawn),–,inactive: 3.03%
Cc1ccc(-c2nc3cc(NC(=O)c4ccc([N+](=O)[O-])o4)ccc3o2)cc1,"inconclusive: 112 µM [inhibitor, single point]",–
Cc1ccc(/C=C2\C(=O)Nc3ccccc32)o1,"inconclusive: 50.1 µM [inhibitor, partial curve, poor fit]",–
c1ccc2cc(CN3CCN(Cc4c[nH]c5ccccc45)CC3)ccc2c1,active: 1.78 µM,–
Cc1nc2scc(CC(=O)N3CCCC3)n2c(=O)c1-c1cc(C)n(-c2ccc(C(C)C)cc2)n1,–,inactive: 37.7%
CCCCN(CC)CCCNC(=O)c1ccc(CS(=O)(=O)c2c(Cl)cccc2Cl)o1,–,inactive: 48.1%
Cn1c(SCc2ccccc2F)nc2cccnc21,–,inactive: 6.18%
O=C(NC[C@H]1O[C@H](Cc2cc(COc3ccccc3)on2)CC[C@@H]1O)C1CCC1,–,inactive: 9.73% [at 176 µM]
CC(=O)O/N=C(\N)c1ccc(-c2csnn2)cc1,"inconclusive: 126 µM [inhibitor, partial curve, poor fit]",–
COc1cc(CNc2cccc(F)c2)cc(Br)c1O,"inconclusive: 7.94 µM [inhibitor, full curve]",–
COc1cccc(NC(=O)COC(=O)CCC(=O)c2cccs2)c1,"inconclusive: 126 µM [inhibitor, partial curve, poor fit]",–
Nc1nc(SCC(=O)N2CCCCCC2)[nH]c(=O)c1NC(=O)c1ccco1,"inconclusive: 39.8 µM [inhibitor, single point]",–
O=C(COC(=O)C1CC1)Nc1ncc(Cl)cc1Cl,"inconclusive: 50.1 µM [inhibitor, partial curve, poor fit]",–
Cc1ccc2nc(CSc3nnc4c(Cl)cc(C(F)(F)F)cn34)cn2c1,"inconclusive: 25.1 µM [inhibitor, partial curve, poor fit]",–

SMILES,Potency,"activity change, negative = inhibition"
COc1cccc(-c2nccc(NCCc3c[nH]c4ccc(OC)cc34)n2)c1,"inconclusive: 11.2 µM [inhibitor, partial curve, poor fit]",–
O=S(=O)(NCCO)c1ccc2c(c1)Cc1cc(S(=O)(=O)NCCO)ccc1-2,–,inactive: 14.1%
CCOc1ccc(CN(C)C(=O)CCc2ccc(S(=O)(=O)N3CCCCCC3)cc2)cc1,"inconclusive: 70.8 µM [inhibitor, single point]",–
O=C(COc1ccccc1[N+](=O)[O-])NCCC1=CCCCC1,"inconclusive: 50.1 µM [inhibitor, partial curve, poor fit]",–
Cc1[nH]c(=S)[nH]c(=O)c1CCOc1ccccc1,"inconclusive: 44.7 µM [inhibitor, partial curve, poor fit]",–
CCNc1cccc2c1C(=O)N(C)C2=O,–,inactive: 1.93% [at 57.4 µM]
C[C@@H](C(=O)O)c1ccc(-c2ccccc2)c(F)c1,–,inactive: 288%
COc1cc(/C=C/C(=O)O)cc(S(=O)(=O)Nc2ccccc2Cl)c1OC,–,inactive: -29.1%
CSc1nnc(Cc2sc(-c3ccccc3)nc2-c2ccccc2)o1,"inconclusive: 7.94 µM [inhibitor, partial curve, poor fit]",–
COc1ccccc1-n1c(SCC(N)=O)nc2c(c1=O)SCC2,"inconclusive: 79.4 µM [inhibitor, single point]",–
COc1cccc(N2C(=O)NC(=NC3CCCCC3)C23CCCN(Cc2ccccc2)C3)c1 (stereo not drawn),"inconclusive: 44.7 µM [inhibitor, partial curve, poor fit]",–
CCC[C@H]1CN(CCS(C)(=O)=O)C[C@@H]1NC(=O)C1CCOCC1,"inconclusive: 8.91 µM [inhibitor, partial curve, poor fit]",–
CCC1C(=O)NCCN1Cc1ccc2c(c1)CN(Cc1cc(OC)c3c(c1)OCO3)CCO2 (stereo not drawn),"inconclusive: 126 µM [inhibitor, single point]",–
O=C(C1CC(=O)N(C2CCCCC2)C1)N1CCN(c2cccc(C(F)(F)F)c2)CC1 (stereo not drawn),"inconclusive: 39.8 µM [inhibitor, partial curve, poor fit]",–
O=S(=O)(Nc1ccn(-c2ccccc2)n1)c1ccc(Br)cc1,"inconclusive: 11.2 µM [inhibitor, partial curve, poor fit]",–
Cc1c(C)c2c(OCC(=O)NCc3ccncc3)cc3c(c2oc1=O)CCC(C)(C)O3,–,inactive: 25.7%
Fc1ccc(-[n+]2nc(Nc3ccccc3)sc2-c2c3ccccc3cc3ccccc23)cc1,"inconclusive: 50.1 µM [inhibitor, partial curve, poor fit]",–
CC1(COc2ccccc2)COc2ccc(C(=O)N3CCN(c4ccccn4)CC3)cc2N1 (stereo not drawn),"inconclusive: 35.5 µM [inhibitor, full curve, poor fit]",–
O=C1c2cc3ccccc3c(-c3ccccc3)c2C(=O)N1c1ccccn1,–,inactive: -19.6%
O=C(c1ccc(Cl)cc1)N1CC(CO)C2(CCNCC2)C1 (stereo not drawn),active: 39.8 µM,–
CC(C)c1ccc(C(C)NC(=O)C2CC2)cc1 (stereo not drawn),"inconclusive: 56.2 µM [inhibitor, partial curve, poor fit]",–
